Data: PubChem BioAssay AID1469 (National Center for Advancing Translational Sciences (NCATS), 2008)
Several values for one entry are separate records, joined by “and”; a condition that tells them apart may be missing. Identical values can stand only once. About 180 (0.064%) of roughly 280,000 compounds were called active. Inconclusive means that the source gave no clear call. Such entries were picked first, then a sample of the others. The call rests on the fitted dose curve; in most records, active means well fitted inhibition curve with a large enough effect; inconclusive means small, poorly fitted or top-dose-only effect, or effect the other way; inactive means flat fitted curve, though single readings scatter. Where the call is inconclusive, the potency comes from a doubtful curve fit. The source holds several records for some structures; these can differ, active in one and inactive in another.

Amino acid sequences for entries named in this document (tags omitted). A change or cut given only in a name is not applied to a line headed by its entry.
UniProt P10828: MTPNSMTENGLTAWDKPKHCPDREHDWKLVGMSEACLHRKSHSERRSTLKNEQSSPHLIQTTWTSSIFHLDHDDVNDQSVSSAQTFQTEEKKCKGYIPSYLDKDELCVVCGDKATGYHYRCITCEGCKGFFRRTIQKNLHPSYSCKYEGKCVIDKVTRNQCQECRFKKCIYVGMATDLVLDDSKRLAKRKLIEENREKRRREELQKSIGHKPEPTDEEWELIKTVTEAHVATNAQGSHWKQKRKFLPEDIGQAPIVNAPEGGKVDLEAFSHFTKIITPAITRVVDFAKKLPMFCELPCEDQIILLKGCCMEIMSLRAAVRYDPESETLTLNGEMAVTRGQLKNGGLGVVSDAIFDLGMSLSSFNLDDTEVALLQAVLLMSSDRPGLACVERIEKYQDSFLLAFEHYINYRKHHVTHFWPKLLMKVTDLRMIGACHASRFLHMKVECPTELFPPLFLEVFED

Molecular target: Thyroid hormone receptor beta (Homo sapiens) (UniProt P10828)
Assay: qHTS for Inhibitors of the Interaction of Thyroid Hormone Receptor and Steroid Receptor Coregulator 2; further: nearly all actives have a fitted effect of over 50% in size;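 on activity change, negative = inhibition: plate controls were bound peptide for no effect and peptide without receptor for full effect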
Conditions: TRbeta-SRC2 peptide binding, fluorescence polarization, receptor liganded with 1 µM T3; series mostly up to 201 µM; activity change, negative = inhibition: at the top concentration
Text: NIH Molecular Libraries Probe Production Network [MLPCN]
NIH Chemical Genomics Center [NCGC]
Assay Provider: R. Kip Guy, St. Jude Children's Research Hospital
Thyroid receptor (TR) regulates many homeostatic processes including basal metabolism, cardiovascular function, body weight, and lipid trafficking. TR modulators are potential therapeutics for obesity and hyperlipidemias but current thyroid analogs have undesirable side effects, particularly cardiac stimulation. To identify inhibitors that specifically prevent the interaction of TR with the steroid receptor coregulator 2 (SRC2), a fluorescence polarization assay was screened. This assay detects interaction of the ligand-binding domain of human TRb with a Texas Red labeled SRC2 peptide, corresponding to a 20 amino acid region of the nuclear receptor interaction domain (Arnold et al., 2006). Small molecule inhibitors that block the interaction of TR and SRC2 are detected by a decrease in fluorescence polarization.
Arnold, L. A.; Estebanez-Perpina, E.; Togashi, M.; Shelat, A.; Ocasio, C. A.; McReynolds, A. C.; Nguyen, P.; Baxter, J. D.; Fletterick, R. J.; Webb, P.; Guy, R. K. A high-throughput screening method to identify small molecule inhibitors of thyroid hormone receptor coactivator binding. Sci STKE 2006, p 13.
NCGC Assay Protocol Summary:
For screening, 5 uL/well 0.6 uM TRb and 20 nM SRC2 Texas Red in protein buffer (20mM Tris hydrochloride, 100mM NaCl, 10% glycerol, 1mM EDTA, 0.01% NP-40, 1mM DTT, 1uM T3 and 5% DMSO) was dispensed into black solid 1536-well plates (Grenier) using a solenoid-based dispenser. Following transfer of 23 nL compound or DMSO vehicle by a pin tool, the plates were centrifuged 15 s at 1000 RPM and incubated 5 hr at ambient temperature. The plates were read by an Envision (Perkin Elmer) to detect fluorescence polarization of SRC2 Texas Red (555 nm excitation and 632 nm emission). Data were normalized to unbound (all components except TRb) and bound SRC2 Texas Red controls. In this assay, we provide % activity data for each concentration as well as potencies for the active compounds.
Keywords: NIH Roadmap, MLPCN, MLI, MLSMR, qHTS, NCGC, qHTS, thyroid hormone receptor, steroid receptor coactivator, fluorescence polarization
Potency means the concentration at half of the fitted maximal effect.

Structure (SMILES) | Potency | activity change, negative = inhibition
O=C(O)C(F)(F)C(F)(F)C(F)(F)C(F)(F)C(F)(F)C(F)(F)C(F)(F)C(F)(F)F | inconclusive: 112 µM [activator, single point] | –
CN/C(=N/[N+](=O)[O-])NCC1CCOC1 (stereo not drawn) | – | inactive: 1.79%
CCOC(=O)C1CCCN(c2ccc([N+](=O)[O-])c3nonc23)C1 (stereo not drawn) | inconclusive: 50.1 µM [inhibitor, partial curve] | –
CCN(CC)C(=O)c1ccc2c(c1)C1C(Cl)C(Sc3ccccc3[N+](=O)[O-])CC1C(C(=O)O)N2 (stereo not drawn) | inconclusive: 15.8 µM [activator, full curve] | –
Cc1cc2c(C(C)C)c(O)c(O)c(C=O)c2c(O)c1-c1c(C)cc2c(C(C)C)c(O)c(O)c(C=O)c2c1O | inconclusive: 50.1 µM [activator, single point] and inconclusive: 44.7 µM [activator, full curve] and inconclusive: 44.7 µM [activator, partial curve] | –
c1ccc2c(c1)c1cccc3ccc4cccc2c4c31 | inconclusive: 126 µM [inhibitor, single point] | –
CCCNC(=O)c1c(N)n(CC2CCCO2)c2nc3ccccc3nc12 (stereo not drawn) | inconclusive: 0.501 µM [inhibitor, full curve, poor fit] | –
O=C(OCC1O[C@@H](OC(=O)c2cc(O)c(O)c(O)c2)[C@@H](OC(=O)c2cc(O)c(O)c(O)c2)[C@@H](OC(=O)c2cc(O)c(O)c(O)c2)[C@@H]1OC(=O)c1cc(O)c(O)c(O)c1)c1cc(O)c(O)c(O)c1 (stereo partly drawn) | inconclusive: 56.2 µM [activator, partial curve, poor fit] | –
Cc1cccc2c3c(ccc12)C1=C(C(=O)C3=O)C(C)CO1 (stereo not drawn) | inconclusive: 44.7 µM [inhibitor, partial curve] | –
CCOc1ccc(-c2nc3cc(NC(=O)COc4cccc(C)c4)ccc3o2)cc1 | inconclusive: 22.4 µM [inhibitor, partial curve] | –
CNC(=O)Oc1cc(C)cc(C(C)C)c1 | – | inactive: 0.482%
CCOP(=O)(C1=C(O)C(=O)C(C(C)(C)C)=CC1=O)c1ccccc1 (stereo not drawn) | inconclusive: 50.1 µM [inhibitor, single point] | –
O=c1cc(C2CCNCC2)[nH][nH]1 | inconclusive: 31.6 µM [inhibitor, full curve, poor fit] | –
CC[N+](C)(CC)CCC[n+]1c(-c2ccccc2)c2cc(N)ccc2c2ccc(N)cc21 | active: 44.7 µM | –
CC(C)CCNC(=O)c1c(N)n(Cc2ccc3c(c2)OCO3)c2nc3ccccc3nc12 | inconclusive: 6.31 µM [inhibitor, full curve] | –
CCN1CCN(C(=O)COc2ccc3c(c2)C(=O)CC2(CCN(C(C)=O)CC2)O3)CC1 | inconclusive: 1 µM [inhibitor, full curve, poor fit] | –
CCCCC/C=C\C/C=C\C/C=C\C/C=C\CCCC(=O)N[C@H](C)CO | inconclusive: 50.1 µM [inhibitor, partial curve] | –

Structure (SMILES) | Potency | activity change, negative = inhibition
CCCCCn1c(N)c(C(=O)NCc2cccs2)c2nc3ccccc3nc21 | inconclusive: 14.1 µM [inhibitor, full curve] | –
CC1N(C)c2cc(NC(=O)c3ccco3)c(P(=O)(Nc3ccc([N+](=O)[O-])cc3)N3CCOCC3)cc2C1(C)C (stereo not drawn) | inconclusive: 31.6 µM [activator, full curve] | –
O=C1C=CC(=O)c2c(O)cccc21 | inconclusive: 50.1 µM [activator, partial curve] and inconclusive: 39.8 µM [activator, partial curve] | –
CC[C@@H]1/C=C/C=C/C[C@H](C)[C@@H](O)[C@](C)(O)C(=O)[C@H](C)[C@@H](O)[C@H](C)C(=O)[C@H](C)[C@@H](O)[C@H](C)/C=C/C(=O)O[C@H]2[C@@H](C)[C@@H](CC1)O[C@@]1(CC[C@@H](C)[C@@H](C[C@H](C)O)O1)[C@@H]2C | inconclusive: 39.8 µM [activator, partial curve] | –
COc1cc2c(cc1OC)-c1c(O)c(OC)cc3c1[C@H](C2)N(C)CC3 | active: 39.8 µM | –
CCCCNC(=O)c1c(N)n(CCCOC)c2nc3ccccc3nc12 | inconclusive: 5.01 µM [inhibitor, full curve] | –
Cc1ccc(Cl)cc1Nc1nn2c(=O)c3ccc(C(=O)NCc4cccs4)cc3nc2s1 | inconclusive: 70.8 µM [activator, single point] | –
N#CC1=C(N)Oc2n[nH]c(-c3cccs3)c2C1c1ccsc1 (stereo not drawn) | inconclusive: 31.6 µM [inhibitor, full curve, poor fit] | –
CCCCN(CC)C(=O)SCCC | – | inactive: 4.28%
O=C1c2ccccc2C(=O)C1C(=O)C(c1ccccc1)c1ccccc1 | inconclusive: 35.5 µM [inhibitor, full curve, poor fit] | –
NS(=O)(=O)C(F)(F)C(F)(F)C(F)(F)C(F)(F)C(F)(F)C(F)(F)C(F)(F)C(F)(F)F | – | inactive: 5.27%
NCCc1cc(O)c(O)cc1O | active: 39.8 µM | –
O=C(O)CC1OCC=C2CN3CCC45C6=CC(=O)C(=O)C([N+](=O)[O-])=C6NC4C1C2CC35 (stereo not drawn) | inconclusive: 22.4 µM [inhibitor, full curve] | –
CCC[CH2][Sn]([CH2]CCC)[CH2]CCC | – | inactive: 0.613%
CCCCNC(=O)c1c(N)n(Cc2ccc3c(c2)OCO3)c2nc3ccccc3nc12 | inconclusive: 20 µM [inhibitor, full curve] | –
CCCCn1c(N)c(C(=O)NCc2cccs2)c2nc3ccccc3nc21 | inconclusive: 22.4 µM [inhibitor, full curve] | –
